Reference: patent US7314866B2, “Ku-70-derived Bax-suppressing peptides and use thereof for the protection of damaged cells” (Bloodcenter of Wisconsin, Inc., priority 2002, dated 2008)
“Also recorded” adds a separate entry of the source. Part of at least one peptide drawing is inferred or uncertain, most often the ends. Where a SMILES comes first, the peptide text is derived from it.

Chains of the proteins cited; added tags and fusions are not shown. Residues count along the entry.
UniProt Q07812, whole entry: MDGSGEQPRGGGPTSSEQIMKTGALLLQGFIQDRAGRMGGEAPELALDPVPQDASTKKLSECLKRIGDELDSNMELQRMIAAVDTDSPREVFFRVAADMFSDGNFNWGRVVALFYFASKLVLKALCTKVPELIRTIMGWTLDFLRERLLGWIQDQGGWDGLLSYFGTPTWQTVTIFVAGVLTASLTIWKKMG
UniProt P12956, 2-609 limits assumed: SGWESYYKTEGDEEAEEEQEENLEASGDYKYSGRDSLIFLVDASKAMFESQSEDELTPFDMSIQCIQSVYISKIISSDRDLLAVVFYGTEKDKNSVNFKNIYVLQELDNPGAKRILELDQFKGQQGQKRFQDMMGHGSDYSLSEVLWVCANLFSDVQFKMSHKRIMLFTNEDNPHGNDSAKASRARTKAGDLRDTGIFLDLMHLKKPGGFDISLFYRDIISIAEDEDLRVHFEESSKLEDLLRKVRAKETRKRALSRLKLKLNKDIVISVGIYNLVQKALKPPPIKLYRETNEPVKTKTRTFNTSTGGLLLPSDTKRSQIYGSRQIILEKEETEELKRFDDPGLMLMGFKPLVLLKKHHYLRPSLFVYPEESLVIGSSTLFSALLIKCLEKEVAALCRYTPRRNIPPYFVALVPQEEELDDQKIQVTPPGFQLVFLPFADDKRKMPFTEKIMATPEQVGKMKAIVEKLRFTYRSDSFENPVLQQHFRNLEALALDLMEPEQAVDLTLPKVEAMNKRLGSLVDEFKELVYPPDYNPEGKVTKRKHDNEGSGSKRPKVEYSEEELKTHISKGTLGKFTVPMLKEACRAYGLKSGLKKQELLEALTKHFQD
UniProt P13010, 2-732 limits assumed: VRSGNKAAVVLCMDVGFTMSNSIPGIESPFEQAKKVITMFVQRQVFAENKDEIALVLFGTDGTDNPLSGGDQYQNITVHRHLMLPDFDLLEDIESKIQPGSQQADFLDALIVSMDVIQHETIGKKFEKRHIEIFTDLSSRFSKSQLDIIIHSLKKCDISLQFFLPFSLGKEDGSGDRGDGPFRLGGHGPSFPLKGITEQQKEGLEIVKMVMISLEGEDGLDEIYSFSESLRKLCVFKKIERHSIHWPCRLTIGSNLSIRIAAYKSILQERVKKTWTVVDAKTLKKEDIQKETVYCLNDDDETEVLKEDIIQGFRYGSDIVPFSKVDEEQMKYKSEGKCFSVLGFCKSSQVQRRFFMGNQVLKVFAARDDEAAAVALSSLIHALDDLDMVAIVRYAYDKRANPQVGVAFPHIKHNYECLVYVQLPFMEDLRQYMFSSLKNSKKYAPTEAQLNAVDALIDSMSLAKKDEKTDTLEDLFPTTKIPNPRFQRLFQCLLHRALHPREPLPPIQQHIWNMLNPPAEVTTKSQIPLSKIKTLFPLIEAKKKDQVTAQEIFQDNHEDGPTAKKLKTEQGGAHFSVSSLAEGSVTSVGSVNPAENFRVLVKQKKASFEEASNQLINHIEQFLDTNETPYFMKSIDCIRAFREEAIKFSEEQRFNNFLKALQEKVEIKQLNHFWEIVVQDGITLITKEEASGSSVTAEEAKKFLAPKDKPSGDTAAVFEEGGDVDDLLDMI

How the values were obtained:
[1] = target: T1, interaction of Ku70 and Bax (Homo sapiens, UniProt Q07812); test: Co-immunoprecipitation of endogenous Ku70 and Bax in cell lysates with added peptide; type: binding; settings: for Effect on the interaction of Ku70 and Bax: peptide added to cell lysates
T1 construct: endogenous in cells; HeLa and 293 cells for the V6 peptide
Experimental: FIGS. 6A–D: HEK293T cells (10^7 cells) lysed in CHAPS buffer were incubated with 200 uM negative control (NC) peptide or (A) VPMLK (V5, SEQ ID NO: 1), (B) PMLKE (P5, SEQ ID NO: 2), (C) PMLK (P4, SEQ ID NO: 3), and (D) MLKE (M4, SEQ ID NO: 6) at the indicated concentrations for 1 hour. Immunoprecipitation was performed with anti-Ku70 monoclonal antibody or anti-Bax polyclonal antibody using CHAPS buffer as described in Methods. Mouse IgG and pre-immune rabbit serum (NRS) were used as negative controls.
By testing several deletion mutants of the Ku70 protein, I have identified the Bax-binding domain in Ku70. The domain comprises 6 amino acids (VPMLKE, SEQ ID NO: 7). This peptide (Ku70 Peptide V6) inhibits the interaction of Ku70 and Bax at the concentration of 20–80 μM in lysates prepared from human cultured cells (HeLa cells and human kidney epithelial 293 cells).
Endogenous protein: HEK293T (10^7 cells) were lysed in 200 ul of “CHAPS-based buffer” (150 mM NaCl, 10 mM Hepes, pH 7.4, 1.0% CHAPS) containing protease inhibitors (100 times dilution of Protease Inhibitors Cocktail; Sigma) according to the previously reported method (Hsu and Youle, J. Biol. Chem. 273:10777–10783, 1998). After precleaning of 600 ul of the sample with 50 ul of Protein G-Sepharose at 4° C. for 1 hour, immunoprecipitations were performed by incubating 200 ul of lysates with 20 ul of Protein G-Sepharose preabsorbed with 2 ug of anti-Bax polyclonal (BD-Pharmingen) or anti-Ku70 monoclonal antibody (BD-Pharmingen) at 4° C. for 2 hours. In some cases, 2 ug of anti-Bax monoclonal antibody (clone 6A7, BD Pharmingen) was used to detect active form of Bax. After extensive washing in the buffer, beads were boiled in 40 ul of Laemmli buffer and 20 ul of the eluted proteins were subjected to SDS-PAGE. Co-precipitation of biotin-labeled peptides and endogenous Bax using streptavidin beads: HEK293T cells (10^7 cells) lysed in 200 ul CHAPS-based buffer were incubated with biotin-labeled negative control (NC) peptide or VPMLK (V5; SEQ ID NO: 1) peptide for 1 hour. The concentrations of NC and V5 peptide labeled with biotin are described in the figure legends. Co-precipitation was performed with streptavidin beads prepared in a ratio of 75% Streptavidin Sepharose to 25% CHAPS buffer according to the manufacturer's manual (Amersham Pharmacia Biotech). Flag-tagged-Ku 70 and endogenous Bax: HEK293T cells (10^6 cells) were co-transfected with 1.0 ug of pcDNA3-Bax and 1.0 ug of pCMV-2B-control vector (Flag-tagged firefly luciferase), pCMV-2B-Ku70 wt (Flag-Ku70 wt), pCMV-2B-Ku701-577 (Flag-Ku701-577), or pCMV-2B-Ku70578-609(Flag-Ku70578-609) in the presence of 50 uM z-VAD-fmk. Co-immunoprecipitation was performed with anti-Flag monoclonal antibody (Stratagene; 2 ug for 200 ul sample), and Western-blot of Bax (15% SDS-PAGE) was done with anti-human Bax polyclonal antibody (BD-Phramingen).

HEK293T cells [2] = test: Bax-induced apoptosis in HEK293T cells (pcDNA3-Bax transfection, Hoechst staining); type: cell-based, human; settings: for Suppression of Bax-induced apoptosis in cell culture: added to the culture medium
Experimental: FIG. 1 illustrates that new peptides designed from Ku70 show anti-Bax activity. FIG. 1A: scheme of Ku70 full-length (Ku70 wt), Ku701-577 (Ku70Δ578–609), or Ku70578-609 (Ku70Δ1–577). FIG. 1C: HEK293T cells were transfected with 1.0 ug of pCMV-2B-control vector (Control) or pcDNA3-Bax (Bax) together with 2.0 ug of pCMV-2B-Ku70 wt (Ku70 wt), pCMV-2B-Ku701-577 (Ku701-577), or pCMV-2B-Ku70578-609 (Ku70578-609). All the cells were also co-transfected with 0.5 ug pEGFP for the marking of transfected cells. Apoptosis in the transfected cells was analyzed 24 hours following transfection with Hoechst dye staining of the nucleus as described in Methods. FIG. 1D: HEK293T cells were incubated with 200 uM peptide composed of Ku70578-587 or Ku70596-600 for 4 hours using BioPorter reagent, and then transfected with 1.0 ug of pCDNA3-control vector (Control) or pcDNA3-Bax (Bax). The number of apoptotic cells was determined as described in FIG. 1C. FIG. 1E: HEK293T cells (10^6 cells) were incubated with 200 uM IPMIK (negative control peptide) or VPMLK (V5) and PMLKE (P5) peptides at the indicated concentrations for 1 hour and then incubated cells were transfected with 1.0 ug of pcDNA3-Bax. Also, unincubated cells were transfected with 1.0 ug of pcDNA3-Bax in the presence or absence of 200 uM z-VAD-fmk. The number of apoptotic cells was determined as described in FIG. 1C. FIG. 1F: Summary of the anti-Bax activity and sequence of all peptides used.
HEK293T and HeLa cells were cultured in MEM supplemented with 10% fetal bovine serum (FBS) and Du145 cells and mouse embryonic fibroblasts (MEFs) were in DMEM with 10% FBS. Transfection of the plasmids was performed by SuperFect (Qiagen) according to the manufacturer's manual. Apoptosis was induced by pcDNA3-human Bax (Bax-encoding plasmid)-transfection, Staurosporin (STS)-treatment and UVC-irradiation. The amount of the plasmids, the concentration of STS, and the energy of UVC-irradiation are described in the figure legends. Apoptosis in the transfected cells was analyzed as follows: A plasmid encoding enhanced green fluorescent protein (EGFP) (0.5 ug to 10^6 cells) was transfected to all the groups to mark the transfected cells. After the treatment, cells were stained with Hoechst dye and cells with apoptotic nuclei were counted in GFP-expressing cells under the fluorescent microscope as described by Matsuyama, et al., J. Biol. Chem. 273:30995–31001, 1998. Each point in the figures showing percentages of apoptosis represents the mean +/−SE of three experiments. Caspase activities of cells were measured by detecting the cleavage of fluorogenic substrate of Caspase (DEVD-afc) as previously described.
BioPorter-based peptide delivery was performed 4 hours before apoptosis induction.

HeLa cells = test: STS- and UVC-induced apoptosis in HeLa cells; type: cell-based, human
Bax = test: Mitochondrial translocation of Bax (subcellular fractionation); type: cell-based, human; settings: cells treated by UV-irradiation or staurosporin
HEK293T cells [3] = test: Bax-mediated apoptosis measured by propidium iodide exclusion (flow cytometry); type: cell-based, human; settings: 200 uM, pcDNA3-Bax transfected HEK293T
[4] = tested on: Ku70-deficient mouse embryonic fibroblasts (MEFs); test: STS- and UVC-induced apoptosis in Ku70-deficient mouse embryonic fibroblasts; type: cell-based
cytochrome c release = test: Cytochrome c release from mitochondria (fractionation, Western blot); type: cell-based, human; settings: HeLa cells, 200 nM STS, 200 uM, 24 hours
Bax/Bcl-2 = target: T2, Bax/Bcl-2 (Homo sapiens, UniProt Q07812); test: Co-immunoprecipitation of Bax/Bcl-2; type: binding; settings: HEK293T lysates, NP40 buffer, 200 uM
T2 construct: Endogenous protein: HEK293T (10^7 cells) were lysed; endogenous in cells; host or cells: HEK293T

Caspase = Caspase activity (DEVD-afc cleavage); type: cell-based, human; settings: HeLa cells, 200 nM STS, 200 uM, 24 hours
Experimental: FIG. 4A: One day following UVC-irradiation or STS-treatment in the absence (UV and STS) or presence of 200 uM negative control (NC) peptide (UV+NC and STS+NC) or V5 peptide (UV+V5 and STS+V5), subcellular fractionation of HeLa cells (10^6 cells) was performed. FoF1 ATP synthase subunit α (F1α) was used to mark the mitochondrial fraction. HM stands for “Heavy Membrane” fraction containing mitochondria. FIG. 4C: cytochrome c release from mitochondria is inhibited by BIP, but not z-VAD-fmk. HeLa cells (10^6 cells) were treated with 200 nM STS in the presence or absence of 200 uM negative control (NC) peptide, V5 peptide, or z-VAD-fmk for 24 hours. Cytochrome c released from mitochondria into cytosol was analyzed by subcellular fractionation followed by Western blot analysis of cytochrome c (cyt c) as well as mitochondrial FoF1-ATP-synthase subunit F1α (F1α) as described in Methods. […] Caspase activity was assessed as described in Methods. […]
HEK293T and HeLa cells were cultured in MEM supplemented with 10% fetal bovine serum (FBS) and Du145 cells and mouse embryonic fibroblasts (MEFs) were in DMEM with 10% FBS. […] Apoptosis in the transfected cells was analyzed as follows: A plasmid encoding enhanced green fluorescent protein (EGFP) (0.5 ug to 10^6 cells) was transfected to all the groups to mark the transfected cells. […]

Ku70/Ku80 = target: T3, Ku70/Ku80 (Homo sapiens, UniProt P12956+P13010); test: Co-immunoprecipitation of Ku70/Ku80; type: binding; settings: HEK293T lysates, 200 uM
T3 construct: Endogenous protein: HEK293T (10^7 cells) were lysed; endogenous in cells; host or cells: HEK293T

SMILES | Binding to Bax in vitro [1] | Effect on the interaction of Ku70 and Bax [1] | Suppression of Bax-induced apoptosis in cell culture (HEK293T cells [2]) | Concentration that inhibits the interaction of Ku70 and Bax ([1]; lysates of HeLa cells and human kidney epithelial 293 cells) [µM] | Suppression of Bax-induced apoptosis (HEK293T cells [2]; peptide delivered into the cells by liposome (BioPorter)) | Suppression of cell death induced by UV-irradiation and staurosporin (HeLa cells) | Inhibition of mitochondrial translocation of Bax (Bax) | Inhibition of Bax-mediated apoptosis by PI exclusion (HEK293T cells [3]) | Suppression of STS- and UVC-induced apoptosis [4] | Inhibition of cytochrome c release from mitochondria (cytochrome c release) | Effect on Bax/Bcl-2 heterodimerization (Bax/Bcl-2) | Suppression of Caspase activation (Caspase) | Effect on the interaction of Ku70/Ku80 (Ku70/Ku80)
CSCC[C@H](NC(=O)[C@@H]1CCCN1)C(=O)N[C@@H](CC(C)C)C(=O)N[C@@H](CCCCN)C(=O)O [PMLK] (H-PMLK-OH; N-terminus and C-terminus assumed) | sufficient to bind Bax in vitro | inhibited the interaction of Bax and Ku70 | not biologically active; also recorded: could not suppress apoptosis in the cell culture |  |  |  |  |  |  |  |  |  | 
CSCC[C@H](NC(=O)[C@@H]1CCCN1C(=O)[C@@H](N)C(C)C)C(=O)N[C@@H](CC(C)C)C(=O)N[C@@H](CCCCN)C(=O)N[C@@H](CCC(=O)O)C(=O)O [VPMLKE] (H-VPMLKE-OH; N-terminus and C-terminus assumed) |  |  |  | 20 to 80 | sufficient to suppress Bax-mediated apoptosis | suppressed cell death | inhibits mitochondrial translocation of Bax |  |  |  |  |  | 
CSCC[C@H](NC(=O)[C@@H]1CCCN1)C(=O)N[C@@H](CC(C)C)C(=O)N[C@@H](CCCCN)C(=O)N[C@@H](CCC(=O)O)C(=O)O [PMLKE] (H-PMLKE-OH; N-terminus and C-terminus assumed) |  | inhibited the interaction | equally effective to suppress Bax; also recorded: equally effective in suppressing apoptosis induced by Bax; also recorded: able to suppress Bax-induced apoptosis |  |  | showed anti-cell death activity |  |  |  |  |  |  | 
CSCC[C@H](NC(=O)[C@@H]1CCCN1C(=O)[C@@H](N)C(C)C)C(=O)N[C@@H](CC(C)C)C(=O)N[C@@H](CCCCN)C(=O)O [VPMLK] (H-VPMLK-OH; N-terminus and C-terminus assumed) |  | inhibited the interaction | equally effective to suppress Bax; also recorded: equally effective in suppressing apoptosis induced by Bax; also recorded: able to suppress Bax-induced apoptosis |  |  | showed anti-cell death activity | inhibits the mitochondrial translocation of Bax | inhibits Bax-mediated apoptosis | does not require Ku70 to suppress apoptosis | inhibited | does not affect Bax/Bcl-2 heterodimerization | suppresses STS-induced Caspase activation | does not interfere the interaction of Ku70/Ku80
